Patent US10501412B2 (HANGZHOU DAC BIOTECH CO., LTD., priority 2012, dated 2019)

Key:
[1] = peptide synthesis; conditions: coupling step
[2] = general procedure: peptide synthesis; Boc SPPS: Merrifield, modified PAM or MBHA resin; Fmoc SPPS: Wang, 2-chlorotrityl, HMPB or MBHA resin; TBTU or PyBrOP, DIPEA; conditions: late stage modification step

Row | Substance | step yield [1] [%] | step yield [2] [%]
1 | (4R)-4-(2-((1R,3R)-1-acetoxy-3-((2S,3S)—N,3-dimethyl-2-((R)-1-methylpiperidine-2-carboxamido)pentanamido)-4-methylpentyl)thiazole-4-carboxamido)-2-methyl-5-(4-(phosphonooxy)-3-(4-(pyridin-2-yldisulfanyl)butanamido)phenyl)pentanoic Acid | 71 | –
2 | (4R)-4-(2-((1R,3R)-1-acetoxy-3-((2S,3S)—N,3-dimethyl-2-((R)-1-methylpiperidine-2-carboxamido)pentanamido)-4-methylpentyl)thiazole-4-carboxamido)-5-(3-(4-mercaptobutanamido)-4-(phosphonooxy)phenyl)-2-methylpentanoic Acid | – | 85
3 | (4R)-4-(2-((1R,3R)-1-acetoxy-3-((2S,3S)—N,3-dimethyl-2-((R)-1-methylpiperidine-2-carboxamido)pentanamido)-4-methylpentyl)thiazole-4-carboxamido)-5-(3-(3-(2-(2-(2-(2,5-dioxo-2,5-dihydro-1H-pyrrol-1-yl)ethoxy)ethoxy)ethoxy)-propanamido)-4-(phosphonooxy)phenyl)-2-methylpentanoic Acid | 76 | –
